Library screen at single concentrations

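Whole-parasite assay of Trypanosoma brucei over 72 hours; the read-out is not stated. Compounds at 30 µM. Direction is inferred from retests: higher values go with stronger inhibition. Values scatter widely below zero; nearly all retest evidence comes from the higher of the two concentrations used. Size under these conditions: about 64,000 compounds, about 940 of them at 50% or above in at least one test.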

Values are the deposited “Percent Effect”, in %. The controls that fix the scale are not given in the record; negative values are as filed. This is an unselected part of the compounds tested.

structure,Percent Effect
Cn1ccnc1C(O)c1ccccc1N1CCN(CC2CCCC2)CC1 (stereo not shown),-4.234
CN(C)CC1CSCCCN1C(=O)c1ccc(-n2cccc2)cc1 (stereo not shown),8.853
Cc1c[nH]cc1C(=O)N1CCN(CCc2cccs2)CC1,-10.45
CC(C)CC(NC(=O)c1cc(C2CC2)n[nH]1)c1ncnn1C (stereo not shown),-79
CC(C)N1CCCC1c1csc(N)n1 (stereo not shown),-6.668
O=C(CNc1ccc(OC2CCOC2)cc1)NCc1ccc(F)cc1 (stereo not shown),-47.73
CCOCC(=O)N1CCC(Oc2ccc(C(F)(F)F)cn2)CC1,-10.96
CN(C)S(=O)(=O)N1CCC2(CCCN(Cc3ccc(F)cc3)C2=O)C1 (stereo not shown),-17.51
Cc1ccc(CN(C)C(=O)c2cc3c(c(S(N)(=O)=O)c2)CCC3)o1,9.251
CNC(=O)CC1CC2(CCNCC2)c2cc(F)ccc21 (stereo not shown),0.2617
O=C(NCCc1nnc[nH]1)Nc1cccc(SC(F)F)c1,-45.01
Cn1cnnc1CCNC(=O)c1ccccc1OC1CCC1,-24.73
Cc1nn(C)c2nc(-c3ccccn3)nc(NCCC3CCCN3C)c12 (stereo not shown),-75.32
NC(c1ccc(F)cc1)c1cccs1 (stereo not shown),-91.11
Cc1ccccc1CN(Cc1ccc(S(C)(=O)=O)cc1)CC(C)C,12.18
[H][C@]12CC[C@@]3(N=C(c4ccccc4)NC3=O)[C@@]1([H])CN(CC1CCOCC1)C2,-39.29
O=C(NCc1ccncc1)N(Cc1ccc(F)cc1F)C1CC1,-41.87
CCn1ccnc1CN(C)Cc1nc(Cc2cccc(F)c2)no1,-4.898
Cc1cc(C)n(CC2CCCN2C(=O)Cc2c(C)nc(C)[nH]c2=O)n1 (stereo not shown),-23.33
NC(=O)c1c[nH]nc1NCc1ccc2c(c1)OCO2,1.043
Cc1nccc(CNC(=O)N2CCN(Cc3ccccc3)C[C@H]2C)n1,11.8
O=C(NCc1ccccc1)N1CCC2(CC(=O)N(c3ccsc3)C2)C1 (stereo not shown),-3.878
[H][C@@]12CCN(S(C)(=O)=O)[C@]1([H])CC[C@@H](C(=O)NCc1cccnc1)O2,1.115
CC(=O)N1CCCN(C(=O)NCCOc2ccc3c(c2)CCC3)CC1,-1.338
Cc1cnn(CC2CN(Cc3cccc(C(N)=O)c3)CCO2)c1 (stereo not shown),-3.562
O=C(O)C(F)(F)F.O=C(O)C(F)(F)F.[H][C@@]12CCCO[C@]1([H])[C@H](NC(=O)CC1CC1)CN(Cc1ccccn1)C2,-21.26
CCc1sc(-c2nnc(CNCCn3cccn3)o2)cc1C,-10.67
CCCn1nc2c(cc1=O)CN(CC1CCCCO1)CC2 (stereo not shown),-3.776
Nc1nc2nc(C3CCCN(C(=O)c4cncs4)C3)ccc2s1 (stereo not shown),-14.3
CC(=O)N1CCCC1c1cccc(C)c1C (stereo not shown),-6.339
Cc1ccccc1CC1(C(=O)O)CCCN(c2ncccn2)C1 (stereo not shown),-19.02
Cc1ccc(OC2(C(=O)O)CCN(C/C=C/c3ccco3)CC2)cn1,1.382
CC(=O)NCc1cc2n(n1)CCN(Cc1cccc(CCN)c1)C2,-17.86
O=C(c1ccc(F)cc1F)N1C[C@@H](O)[C@H](N2CCOCC2)C1,-3.77
Cc1ccc(O)c(CNC2CCc3nc(C)nn3C2)n1 (stereo not shown),-13.99
Cc1nn(C)c(N2CCOCC2)c1CNC(c1cccs1)C(C)C (stereo not shown),-7.728
CC(C)c1nccn1-c1cncc(C2CCCN(C3CCCCC3)C2)n1 (stereo not shown),-3.662
Cc1nn(C)c(N(C)C)c1CNC(C)Cc1c(F)cccc1F (stereo not shown),6.756
[H][C@@]12CN(C(C)=O)C[C@]1([H])C(=O)N(CC1CC1)C2,-5.512
CC(C)(C)c1csc(CN2CCN(S(=O)(=O)c3cccnc3)CC2)n1,-13.32
O=C(Nc1cc(F)ccc1OCC1CCCO1)c1ccc(O)nc1 (stereo not shown),-9.65
Cl.c1cc(CNCc2ccnc(N3CCCC3)c2)c2c(c1)OCCO2,-9.162
CN1CCN(C(=O)c2ccccc2)CC(Cc2cc(N(C)C)ncn2)C1 (stereo not shown),-24.49
CC(C)c1nc(COc2cccc3c2NC(=O)CO3)cs1,0.5653
COc1ccccc1N1CCN(CC[C@H](O)c2ccccc2)CC1=O,8.865
COc1ccc(CNC2CCc3ncnn3C2)cc1OCCCC#N (stereo not shown),-20.28
[H][C@]12CC[C@]([H])(CN(C3Cc4ccccc4C3)C1)N(C(=O)N1CCOCC1)C2,-56.02
[H][C@]12CN(c3nc4ccccc4s3)CC[C@@]1(O)CCN(S(=O)(=O)N(C)C)C2,-5.624
Cc1ccc(C)c(OC2CCN(C(=O)CNc3ccccc3Cl)CC2)c1,-16.72
c1cnnc(NCC2CN(CCn3cccn3)CCO2)c1 (stereo not shown),-37.36
CN(Cc1cnn(C)c1)C(=O)NCc1nnc2n1CCC2,-26.56
CC(C)(C)c1nnc(CN2CCn3c(nnc3C3CC3)C2)o1,16.13
CNc1cncc(C2CCCN2Cc2ccnc(C)n2)n1 (stereo not shown),-0.7474
COc1ncccc1NC(=O)c1cccc(C)n1,-16.01
Cc1nc[nH]c1CN1CCC(CNC(=O)c2cccc3cnccc23)C1 (stereo not shown),-25.12
CC(=O)c1ccc(OCC(C)O)cc1O (stereo not shown),4.903
CS(=O)(=O)N[C@H]1CN(C(=O)CCc2ccc(=O)[nH]n2)C[C@@H]1C1CC1,36.09
O=C(O)C(F)(F)F.[H][C@@]12C[C@H](c3nc(C)no3)CN(Cc3ccc(F)cc3)[C@]1([H])CCO2,-4.902
COCC(C)N(Cc1ccccc1OC)C(=O)c1cc(C)[nH]c(=O)c1 (stereo not shown),-2.929
O=C(c1cccnc1)N1CC(S(=O)(=O)c2ccc(Cl)cc2)C1,-62.44
[H][C@]12CCN(Cc3cccc(C)n3)C[C@@]1([H])OCCN(c1ccc(C)nn1)C2,-4.209
O=C(NCCC1CN(Cc2c[nH]cn2)CCO1)c1ccccc1O (stereo not shown),-38
O=C(COC1CCCC1)NCCCn1nc2ccccn2c1=O,-27.23
O=C(c1cccc(Cl)c1)C1CCCN(c2nnc(C3CCC3)o2)C1 (stereo not shown),75.84
CN(C)[C@@H]1CCN(C(=O)Cc2cccs2)[C@H]1Cc1ccncc1.O=C(O)C(F)(F)F.O=C(O)C(F)(F)F,-254.1
NC(=O)CCN1CCc2onc(-c3ccccc3F)c2C1,-16.86
CCOc1ccc(Cl)c(C(=O)N2CCN(c3cnccn3)CC2)n1,10.27
CCc1nc(CN2CCN(C(=O)c3cnccn3)CC2)cs1,3.484
O=C(NC[C@H]1OC[C@@H](NCc2ccccc2)[C@@H]1O)Nc1ccccc1,-6.164
Cc1nc(C)c2c(n1)CCN(C(=O)CN(C)C)CC2,-36.98
CCS(=O)(=O)N1CCC2(CN(C(=O)c3cn(C)cn3)C2)C1,-55.77
Cc1cnn(C2CCCN(C(=O)c3cccc4c3OCO4)C2)c1 (stereo not shown),14.27
O=C(NC1CCN(Cc2ccc(F)cc2)CC1)c1ccc2c(c1)CCC2,-48.93
COc1ccccc1CNC(C)c1cnc2cc(C)nn2c1C (stereo not shown),-15.17
[H][C@]12CN(c3ccnc(N)n3)CC[C@@]1(O)CCN(S(C)(=O)=O)C2,-57.99
CCc1nc(CN2CCCN(C(=O)COCC3CC3)CC2)cs1,-14.25
Cc1nc(O)cc([C@@H]2CN(C(=O)C3CC3)C[C@H]2c2ccccc2F)n1,12.58
O=C(O)C(F)(F)F.[H][C@@]12CCN(CC3CCCCC3)C[C@]1(C(=O)N1CCOCC1)CCO2,-28.53

Some entries from above, unchanged:

{"structure": "Cc1cnn(C2CCCN(C(=O)c3cccc4c3OCO4)C2)c1", "stereo": "stereo not shown", "Percent Effect": 14.27}
{"structure": "Cc1ccc(OC2(C(=O)O)CCN(C/C=C/c3ccco3)CC2)cn1", "Percent Effect": 1.382}
{"structure": "CC(C)(C)c1nnc(CN2CCn3c(nnc3C3CC3)C2)o1", "Percent Effect": 16.13}
{"structure": "[H][C@]12CN(c3ccnc(N)n3)CC[C@@]1(O)CCN(S(C)(=O)=O)C2", "Percent Effect": -57.99}
{"structure": "Cc1cnn(CC2CN(Cc3cccc(C(N)=O)c3)CCO2)c1", "stereo": "stereo not shown", "Percent Effect": -3.562}
{"structure": "Cc1nc[nH]c1CN1CCC(CNC(=O)c2cccc3cnccc23)C1", "stereo": "stereo not shown", "Percent Effect": -25.12}
{"structure": "O=C(NCc1ccncc1)N(Cc1ccc(F)cc1F)C1CC1", "Percent Effect": -41.87}
{"structure": "Cl.c1cc(CNCc2ccnc(N3CCCC3)c2)c2c(c1)OCCO2", "Percent Effect": -9.162}
{"structure": "O=C(NCc1ccccc1)N1CCC2(CC(=O)N(c3ccsc3)C2)C1", "stereo": "stereo not shown", "Percent Effect": -3.878}

Source: ChEMBL document CHEMBL3988442, “University of Dundee, Small-Polar-MMV Screening Library” (2021).